{
  "source": "patent US20260216226A1",
  "about": "“TRIPLE COMBINED THERAPY INHIBITING EGFR, RAF1 AND STAT3 AGAINST PANCREATIC DUCTAL ADENOCARCINOMA” (FUNDACION DEL SECTOR PUBLICO ESTATAL CENTRO NACIONAL DE …, priority 2023, published 2026)",
  "origin": "cited, not measured here",
  "system": "STAT3",
  "conditions": "Kras mutant pancreatic and colon cancer cells; cited from earlier work",
  "note": "At least one structure is not confirmed: it was looked up by name or label, or the drawing left a doubt.",
  "data": [
    {"smiles": "CC(=O)Nc1cccc(-n2c(=O)n(C3CC3)c(=O)c3c(Nc4ccc(I)cc4F)n(C)c(=O)c(C)c32)c1", "note": "[Trametinib]", "values": [
      {"measurement": "STAT3 activation", "value": "significantly activated"}
    ]}
  ]
}
